According to ChEMBL document CHEMBL4316593 (Eur J Med Chem, 2019):
This continues a long series; more values of the same kind are listed elsewhere.

Tests used:
Assay type in all cases: cell-based
Settings in all cases: U-87MG ATCC
[1] = Inhibition of RTK/PI3K/AKT/mTOR signaling in human U87 cells assessed as down regulation of ACOT7 gene expression at cytotoxic IC50 measured after 48 hrs relative to control
[2] = Inhibition of RTK/PI3K/AKT/mTOR signaling in human U87 cells assessed as up regulation of ARHGAP35 gene expression at cytotoxic IC50 measured after 48 hrs relative to control
[3] = Inhibition of RTK/PI3K/AKT/mTOR signaling in human U87 cells assessed as down regulation of MCL1 gene expression at cytotoxic IC50 measured after 48 hrs relative to control
[4] = Inhibition of RTK/PI3K/AKT/mTOR signaling in human U87 cells assessed as down regulation of C16orf72 gene expression at cytotoxic IC50 measured after 48 hrs relative to control
[5] = Inhibition of RTK/PI3K/AKT/mTOR signaling in human U87 cells assessed as down regulation of PSME4 gene expression at cytotoxic IC50 measured after 48 hrs relative to control
[6] = Inhibition of RTK/PI3K/AKT/mTOR signaling in human U87 cells assessed as up regulation of keratin 18 gene expression at cytotoxic IC50 measured after 48 hrs relative to control
[7] = Inhibition of RTK/PI3K/AKT/mTOR signaling in human U87 cells assessed as down regulation of UBOX5 gene expression at cytotoxic IC50 measured after 48 hrs relative to control
[8] = Inhibition of RTK/PI3K/AKT/mTOR signaling in human U87 cells assessed as down regulation of MAML1 gene expression at cytotoxic IC50 measured after 48 hrs relative to control
[9] = Inhibition of RTK/PI3K/AKT/mTOR signaling in human U87 cells assessed as up regulation of rhomboid 5 homolog 2 gene expression at cytotoxic IC50 measured after 48 hrs relative to control
[10] = Inhibition of RTK/PI3K/AKT/mTOR signaling in human U87 cells assessed as up regulation of solute carrier family 33 member 1 gene expression at cytotoxic IC50 measured after 48 hrs relative to control
[11] = Inhibition of RTK/PI3K/AKT/mTOR signaling in human U87 cells assessed as down regulation of ARID3B gene expression at cytotoxic IC50 measured after 48 hrs relative to control
[12] = Inhibition of RTK/PI3K/AKT/mTOR signaling in human U87 cells assessed as up regulation of podocalyxin like gene expression at cytotoxic IC50 measured after 48 hrs relative to control
[13] = Inhibition of RTK/PI3K/AKT/mTOR signaling in human U87 cells assessed as up regulation of preferentially expressed antigen in melanoma gene expression at cytotoxic IC50 measured after 48 hrs relative to control
[14] = Inhibition of RTK/PI3K/AKT/mTOR signaling in human U87 cells assessed as up regulation of solute carrier family 16 member 6 gene expression at cytotoxic IC50 measured after 48 hrs relative to control
[15] = Inhibition of RTK/PI3K/AKT/mTOR signaling in human U87 cells assessed as up regulation of NOP14 nucleolar protein gene expression at cytotoxic IC50 measured after 48 hrs relative to control
[16] = Inhibition of RTK/PI3K/AKT/mTOR signaling in human U87 cells assessed as down regulation of BCAS2 gene expression at cytotoxic IC50 measured after 48 hrs relative to control
[17] = Inhibition of RTK/PI3K/AKT/mTOR signaling in human U87 cells assessed as down regulation of SH3RF2 gene expression at cytotoxic IC50 measured after 48 hrs relative to control
[18] = Inhibition of RTK/PI3K/AKT/mTOR signaling in human U87 cells assessed as up regulation of GAS7 gene expression at cytotoxic IC50 measured after 48 hrs relative to control
[19] = Inhibition of RTK/PI3K/AKT/mTOR signaling in human U87 cells assessed as down regulation of TRAF4 gene expression at cytotoxic IC50 measured after 48 hrs relative to control
[20] = Inhibition of RTK/PI3K/AKT/mTOR signaling in human U87 cells assessed as up regulation of echinoderm microtubule associated protein like 3 gene expression at cytotoxic IC50 measured after 48 hrs relative to control
[21] = Inhibition of RTK/PI3K/AKT/mTOR signaling in human U87 cells assessed as up regulation of OLA1 gene expression at cytotoxic IC50 measured after 48 hrs relative to control
[22] = Inhibition of RTK/PI3K/AKT/mTOR signaling in human U87 cells assessed as up regulation of versican gene expression at cytotoxic IC50 measured after 48 hrs relative to control
[23] = Inhibition of RTK/PI3K/AKT/mTOR signaling in human U87 cells assessed as down regulation of RNF125 gene expression at cytotoxic IC50 measured after 48 hrs relative to control
[24] = Inhibition of RTK/PI3K/AKT/mTOR signaling in human U87 cells assessed as up regulation of vitamin K epoxide reductase complex subunit 1 gene expression at cytotoxic IC50 measured after 48 hrs relative to control
[25] = Inhibition of RTK/PI3K/AKT/mTOR signaling in human U87 cells assessed as up regulation of PRKCSH gene expression at cytotoxic IC50 measured after 48 hrs relative to control
[26] = Inhibition of RTK/PI3K/AKT/mTOR signaling in human U87 cells assessed as up regulation of proline rich 11 gene expression at cytotoxic IC50 measured after 48 hrs relative to control
[27] = Inhibition of RTK/PI3K/AKT/mTOR signaling in human U87 cells assessed as up regulation of TMEM173 gene expression at cytotoxic IC50 measured after 48 hrs relative to control
[28] = Inhibition of RTK/PI3K/AKT/mTOR signaling in human U87 cells assessed as down regulation of ZBTB43 gene expression at cytotoxic IC50 measured after 48 hrs relative to control
[29] = Inhibition of RTK/PI3K/AKT/mTOR signaling in human U87 cells assessed as down regulation of MATR3 gene expression at cytotoxic IC50 measured after 48 hrs relative to control
[30] = Inhibition of RTK/PI3K/AKT/mTOR signaling in human U87 cells assessed as down regulation of C6orf1 gene expression at cytotoxic IC50 measured after 48 hrs relative to control
[31] = Inhibition of RTK/PI3K/AKT/mTOR signaling in human U87 cells assessed as up regulation of RAB34, member RAS oncogene family gene expression at cytotoxic IC50 measured after 48 hrs relative to control
[32] = Inhibition of RTK/PI3K/AKT/mTOR signaling in human U87 cells assessed as down regulation of PPID gene expression at cytotoxic IC50 measured after 48 hrs relative to control

CC(=O)C(=NNc1ccccc1C#N)C(C)=O
log2FC [1]: -0.942
log2FC [2]: 0.374
log2FC [3]: -0.826
log2FC [4]: -0.564
log2FC [5]: -0.544
log2FC [6]: 1.42
log2FC [7]: -0.954
log2FC [8]: -0.482
log2FC [9]: 0.702
log2FC [10]: 0.688
log2FC [11]: -1.17
log2FC [12]: 0.779
log2FC [13]: 1.02
log2FC [14]: 1.4
log2FC [15]: 0.672
log2FC [16]: -0.829
log2FC [17]: -2.05
log2FC [18]: 1.72
log2FC [19]: -1.11
log2FC [20]: 0.907
log2FC [21]: 0.524
log2FC [22]: 1.43
log2FC [23]: -0.989
log2FC [24]: 1.03
log2FC [25]: 0.453
log2FC [26]: 0.662
log2FC [27]: 1.89
log2FC [28]: -1.42
log2FC [29]: -2.04
log2FC [30]: -1.44
log2FC [31]: 1.15
log2FC [32]: -0.71
